# Data as given in PubChem BioAssay AID540256 (National Center for Advancing Translational Sciences (NCATS), 2011).
# In all, about 300,000 compounds went through this assay and about 3,700 (1.2%) were called active. The shares of active, inactive and inconclusive entries below differ from those in the screen. Calls come from the whole dose curve; tested in HEK293 cells. Potencies beside an inconclusive call are fits to weak or partial responses and may not hold up.
# Assay: qHTS for Inhibitors of binding or entry into cells for Lassa Virus; note: nearly all actives have a fitted effect of over 50% in size
# Details: Lassa virus pseudotype entry inhibition, cell reporter; activity change, negative = inhibition: at 37.9 µM (top of the series) unless noted
# % is set by controls: 0 for no effect and ±100 for the full control effect; potency is the fitted concentration of half-maximal effect.
Compound,Potency,"activity change, negative = inhibition"
COCCNC(=O)C(c1cccs1)N(C(=O)Cn1nnc2ccccc21)c1ccc(OC)cc1 (stereo not drawn),"inconclusive: 0.631 µM [inhibitor, full curve, poor fit]",–
CC(C)NCC(O)c1cc(O)cc(O)c1 (stereo not drawn),"inconclusive: 0.0052 µM [activator, full curve]",–
CC(C)(C)Nc1nc(Cl)nc(NC(C)(C)C)n1,–,inactive: 2.23%
CCC(CC)NC(=O)c1cccc([N+](=O)[O-])c1C,–,inactive: -27.7%
Cc1ccc(NC(=O)c2ccc(F)c(S(=O)(=O)NCCc3ccccc3)c2)cc1F,"inconclusive: 11.2 µM [inhibitor, partial curve, poor fit]",–
O=C(Nc1ccccc1)C1C(c2ccccc2)C1(Cl)Cl (stereo not drawn),"inconclusive: 25.1 µM [inhibitor, single point]",–
O=C(Nc1ccc(S(=O)(=O)Nc2ccccn2)cc1)c1ccc(Cl)cc1Cl,"inconclusive: 29.1 µM [inhibitor, single point]",–
COc1ccc(C(=O)NCc2ccccc2)cc1S(=O)(=O)N1CCCc2ccccc21,"inconclusive: 25.1 µM [inhibitor, single point]",–
Cc1c(NC(=O)c2ccccc2NS(=O)(=O)c2ccc(F)cc2)c(=O)n(-c2ccccc2)n1C,"inconclusive: 0.184 µM [inhibitor, partial curve, poor fit]",–
O=C(NCC1CCCO1)C1c2ccccc2C(=O)N1Cc1ccc2c(c1)OCO2 (stereo not drawn),"inconclusive: 2.51 µM [inhibitor, full curve, poor fit]",–
Cc1nc(-c2ccccc2)sc1-c1ccc(SCC(=O)Nc2ccccc2)nn1,"inconclusive: 15.8 µM [inhibitor, partial curve, poor fit]",–
O=C(NNC(=O)c1n[nH]c2ccccc12)c1ccccc1,"inconclusive: 1.26 µM [activator, single point]",–
Cc1cc2cc(CNC(=S)NC3CCCCC3)ccc2[nH]1,"inconclusive: 9.2 µM [inhibitor, partial curve, poor fit]",–
COCCn1c(CCC(=O)Nc2ccc(OC)c(OC)c2)nc2cccnc21,"inconclusive: 35.5 µM [activator, single point]",–
O=C(COc1ccccc1)NC(NC(=S)Nc1ccccc1O)C(Cl)(Cl)Cl (stereo not drawn),"inconclusive: 6.51 µM [inhibitor, partial curve]",–
Cc1cc(C(=O)NNC(=S)Nc2ccccc2)nn1C,"inconclusive: 3.16 µM [activator, partial curve, poor fit]",–
Cc1ccc(N(CC(=O)NC2CCCC2)C(=O)c2ccc(C)s2)cc1,–,inactive: 3.36%
Cc1cc(C)n(-c2nnc(C)n2/N=C/c2ccccc2OCc2ccccc2Cl)n1,"inconclusive: 11.2 µM [inhibitor, partial curve, poor fit]",–
CP(=O)(O)CCCN,"inconclusive: 5.8 µM [inhibitor, single point]",–
COc1cc2c(cc1OC)-c1cc(N3CCc4ccccc43)nc(=O)n1CC2,"inconclusive: 2.82 µM [inhibitor, single point]",–
Cc1cc(C)c2c(CC(=O)NCc3ccco3)coc2c1,"inconclusive: 29.1 µM [inhibitor, single point]",–
CN(C)c1cc2c(Nc3ccc4nc(Cc5ccccc5)[nH]c4c3)ncnc2cn1,"inconclusive: 8.88 µM [activator, full curve, poor fit]",–

# Gathered by group: the compounds so far with fluorine.
Compound,Potency,"activity change, negative = inhibition"
Cc1ccc(NC(=O)c2ccc(F)c(S(=O)(=O)NCCc3ccccc3)c2)cc1F,"inconclusive: 11.2 µM [inhibitor, partial curve, poor fit]",–
Cc1c(NC(=O)c2ccccc2NS(=O)(=O)c2ccc(F)cc2)c(=O)n(-c2ccccc2)n1C,"inconclusive: 0.184 µM [inhibitor, partial curve, poor fit]",–

# The results go on:

Compound,Potency,"activity change, negative = inhibition"
CCOc1cccc(CC(=O)NCc2ccc3c(c2)CCN3C(=O)c2cccc(C)c2)c1OCC,active: 11.2 µM,–
COc1cc(NS(=O)(=O)c2ccc(NC(=O)COc3ccc(Cl)cc3Cl)cc2)nc(OC)n1,–,inactive: -1.84% [at 46.1 µM]
CCn1c(C)nc2cc(C(=O)NNC(=S)Nc3ccccc3)ccc21,active: 4.47 µM,–
Cn1c(CNC(=O)c2ccco2)nnc1SCC(=O)c1ccc(F)cc1,–,inactive: 8.4%
CCN1C(=O)c2ccccc2Sc2ccc(NC(=O)Cc3ccc(OC)c(OC)c3)cc21,"inconclusive: 12.6 µM [inhibitor, single point]",–
COc1ccc(C(=O)NC(Nc2ccc(C)cc2)C(Cl)(Cl)Cl)cc1 (stereo not drawn),–,inactive: -11%
CCOc1ccc(C(=O)C[n+]2cccc3cc(C)ccc32)cc1,"inconclusive: 10 µM [inhibitor, partial curve, poor fit]",–
Cc1ccc(C)c(NC(=S)NC(=O)c2cncc(Br)c2)c1,–,inactive: 2.78%
CCCc1cc(NCc2ccccn2)n2nc(C)c(-c3ccccc3)c2n1,"inconclusive: 7.94 µM [inhibitor, partial curve, poor fit]",–
CC(C)(C)c1ccc(C(=O)N/C(=C/c2cccs2)C(=O)NCc2ccco2)cc1,"inconclusive: 11.2 µM [inhibitor, partial curve, poor fit]",–
CCOc1ccccc1CN1CCNC(=O)C1CC(=O)NCc1cc(C)n(C)n1 (stereo not drawn),–,inactive: -6.54% [at 46.1 µM]
Cc1ccc(C(=O)Nc2ccccc2N2CCCCC2)cc1,–,inactive: -3.82% [at 46.1 µM]
Cc1ccc(CNCc2ccc3c(c2)n(C)c(=O)n3C)cc1,"inconclusive: 3.98 µM [inhibitor, single point]",–
Cc1ccc(C(=O)N2CCC(Cc3ccccc3)CC2)cc1[N+](=O)[O-],–,inactive: -18.1%
N#C/C(=N\Nc1ccc(Cl)cc1)C(=O)c1ccccc1,"inconclusive: 6.31 µM [inhibitor, full curve, poor fit]",–
COc1ccc(NC(=O)CS(=O)(=O)Cc2ccccc2)c([N+](=O)[O-])c1,–,inactive: 14.3%
O=C(Nc1ccc(OCC(=O)N2CCOCC2)cc1)Nc1cccc(Cl)c1,–,inactive: 1.09%
CCOC(=O)C1(CC2CCCCO2)CCN(S(=O)(=O)c2cccc(F)c2)CC1 (stereo not drawn),"inconclusive: 12.6 µM [inhibitor, partial curve, poor fit]",–
O=C(Cn1cnc2ccccc2c1=O)c1ccc(OC(F)F)cc1,"inconclusive: 0.562 µM [activator, full curve, poor fit]",–
CC(=O)c1nn(-c2cccc(Br)c2)cc1C(=O)c1ccc(Br)cc1,"inconclusive: 25.9 µM [inhibitor, partial curve, poor fit]",–
CCOC(=O)Cc1cc(=O)n2[nH]c(C)c(-c3ccc(Cl)cc3)c2n1,"inconclusive: 29.1 µM [inhibitor, single point]",–
